We go through one compound from patent US20070110743A1, “Methods of protein production using anti-senescence compounds” (Wyeth, priority 2005, published 2007).

SMILES strings stand for the structures.

In this data set the test system is MYO-29 cell line. Description: Dish scale carnosine experiments (dish cultures taken from bioreactor). Type of data set: cell-based. As to conditions: 10 mM carnosine added on day 4, 7 or 10; dishes at 31° C., harvested day 12.

As to `NCCC(=O)N[C@@H](Cc1cnc[nH]1)C(=O)O` [carnosine], the acidic peaks result was “decreasing” and the “high molecular weight aggregates” value is “decreasing”.
